According to PMC7559231, “Drug-induced cholestasis assay in primary hepatocytes” (MethodsX, 2020):

Tested on: sandwich-cultured human hepatocytes
Assay: Drug-induced cholestasis (DIC) assay: urea formation in sandwich-cultured human hepatocytes with and without the bile salt mixture
Details: lowest in vitro concentration with DICI < 0.78 / Cmax,total
Source text: Drug-induced cholestasis (DIC) is a major cause of attrition during drug development and post-marketing withdrawal. Early detection of DIC is crucial for avoiding financial losses and improving drug safety. Preclinical assays for DIC detection often rely on evaluation of the test compound towards individual cellular targets such as their inhibitory potential towards the bile salt export pump (BSEP) by using BSEP membrane vesicles. However, the underlying mechanisms of DIC development are more complex involving multiple other transporters and nuclear receptors. A more comprehensive in vitro model such as sandwich-cultured human hepatocytes (SCHH) are more suited due to the presence of metabolizing enzymes and transporters relevant to bile salt disposition. The assay described here relies on changes in the ability of SCHH to produce urea from ammonia in the absence and presence of a (patho-)physiologically relevant bile salt mixture. […] Measuring changes in urea production allows for the quantitative evaluation of the hepatocyte's biochemical and functional integrity. The colorimetric quantitation of urea formation is based on the reaction between urea and diacetylmonoxime.
By determining the ratio of urea formation after incubation with test compound in absence and in presence of the bile salt mixture, the DIC index (DICI) value can be calculated. […]

CCCCc1oc2ccccc2c1C(=O)c1cc(I)c(OCCN(CC)CC)c(I)c1 [Amiodarone, amiodarone]
DICI-based SM obtained with the ‘original’ LOAEL method 24 h (24 h incubation): 30.86 | DICI-based SM obtained with the ‘original’ LOAEL method 48 h (48 h incubation): 30.86
